From publication PMC3973283
No constants are given. Whether binding was seen depends on the method and setting. In cells and extracts the contact can be indirect. Sequences can lack the tags named with a protein.

Biological target: T1, FLAG-PR-Set7 (UniProt Q9NQR1)
T1 sequence: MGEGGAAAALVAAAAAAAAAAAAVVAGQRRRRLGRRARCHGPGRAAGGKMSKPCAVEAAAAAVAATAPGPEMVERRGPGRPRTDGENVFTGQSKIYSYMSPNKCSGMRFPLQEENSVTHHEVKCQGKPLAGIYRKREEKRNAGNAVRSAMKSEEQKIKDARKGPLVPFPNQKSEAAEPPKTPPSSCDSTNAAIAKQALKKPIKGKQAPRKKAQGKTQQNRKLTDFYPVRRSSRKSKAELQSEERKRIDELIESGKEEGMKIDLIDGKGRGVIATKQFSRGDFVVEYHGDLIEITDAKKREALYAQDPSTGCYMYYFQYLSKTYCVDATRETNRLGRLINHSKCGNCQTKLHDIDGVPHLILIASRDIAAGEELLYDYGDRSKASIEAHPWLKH
Test: co-IP; HeLa or HCT116 cells transfected with FLAG-PR-Set7 or FLAG-GFP; FLAG-immunoprecipitation; Western analysis of endogenous Riz1 (Figure 6B)

## endogenous mutant Riz1 (HCT116) (from UniProt Q13029-1)
  binding: no binding
